This is one part of the list. The calls rarely recur for the same compound in another form.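 In K562 cells expressing nanoluciferase-fused kinases, luminescence was recorded at 4 h intervals between 2 and 18 h, normalized as percent of control with DMSO at 100% and a positive control at 0%. A significant (2 sigma) signal drop marks a time point as decreased. The authors' rule for a hit is not shown and takes in more than the number of time points.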
Experiments:
Assay in all cases: kinase-Nluc reporter destabilization hit call (1 = scored as downregulated) (binary); higher = compound decreases kinase abundance
Details in all cases: K562; 2-18 h
PDPK1 = PDPK1 (UniProt O15530)
PIK4CA = PIK4CA (UniProt P42356)
PIK4CB = PIK4CB (UniProt Q9UBF8)
PLK1 = PLK1 (UniProt P53350)
PRKAA1 = PRKAA1 (UniProt Q13131)
PRKCA = PRKCA (UniProt P17252)
PTK2 = PTK2 (UniProt Q05397)
PTK2B = PTK2B (UniProt Q14289)
RAF1 = RAF1 (UniProt P04049)
[1] = biological target: RAF1_S257L (clone: RAF1_mut) (UniProt P04049)
RET = RET (UniProt P07949)
[2] = biological target: RET_M918T (clone: RET_mut) (UniProt P07949)
RIOK1 = RIOK1 (UniProt Q9BRS2)
RIPK1 = RIPK1 (UniProt Q13546)
RIPK2 = RIPK2 (UniProt O43353)
ROR2 = ROR2 (UniProt Q01974)
RPS6KA1 = RPS6KA1 (UniProt Q15418)
SPHK1 = SPHK1 (UniProt Q9NYA1)
SRC = SRC (UniProt P12931)
STK24 = STK24 (UniProt Q9Y6E0)

Sequences of proteins named here, by UniProt entry; tags and fusion partners are left off. A change or cut given only in a name is not applied to a line headed by its entry.
UniProt O15530: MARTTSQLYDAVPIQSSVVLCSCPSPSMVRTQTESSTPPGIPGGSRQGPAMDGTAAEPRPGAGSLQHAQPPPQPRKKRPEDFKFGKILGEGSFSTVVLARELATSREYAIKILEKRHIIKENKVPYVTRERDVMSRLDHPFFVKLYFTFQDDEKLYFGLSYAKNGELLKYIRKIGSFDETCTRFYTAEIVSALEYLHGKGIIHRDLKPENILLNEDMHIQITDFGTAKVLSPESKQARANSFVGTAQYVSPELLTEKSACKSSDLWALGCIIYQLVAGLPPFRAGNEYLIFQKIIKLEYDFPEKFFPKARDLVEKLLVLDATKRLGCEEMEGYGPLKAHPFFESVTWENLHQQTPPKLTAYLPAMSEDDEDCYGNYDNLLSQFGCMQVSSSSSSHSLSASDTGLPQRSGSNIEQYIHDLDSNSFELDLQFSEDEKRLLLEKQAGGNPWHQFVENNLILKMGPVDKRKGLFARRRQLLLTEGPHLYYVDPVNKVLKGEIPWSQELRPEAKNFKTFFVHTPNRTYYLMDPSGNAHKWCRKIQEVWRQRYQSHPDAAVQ
UniProt Q9UBF8: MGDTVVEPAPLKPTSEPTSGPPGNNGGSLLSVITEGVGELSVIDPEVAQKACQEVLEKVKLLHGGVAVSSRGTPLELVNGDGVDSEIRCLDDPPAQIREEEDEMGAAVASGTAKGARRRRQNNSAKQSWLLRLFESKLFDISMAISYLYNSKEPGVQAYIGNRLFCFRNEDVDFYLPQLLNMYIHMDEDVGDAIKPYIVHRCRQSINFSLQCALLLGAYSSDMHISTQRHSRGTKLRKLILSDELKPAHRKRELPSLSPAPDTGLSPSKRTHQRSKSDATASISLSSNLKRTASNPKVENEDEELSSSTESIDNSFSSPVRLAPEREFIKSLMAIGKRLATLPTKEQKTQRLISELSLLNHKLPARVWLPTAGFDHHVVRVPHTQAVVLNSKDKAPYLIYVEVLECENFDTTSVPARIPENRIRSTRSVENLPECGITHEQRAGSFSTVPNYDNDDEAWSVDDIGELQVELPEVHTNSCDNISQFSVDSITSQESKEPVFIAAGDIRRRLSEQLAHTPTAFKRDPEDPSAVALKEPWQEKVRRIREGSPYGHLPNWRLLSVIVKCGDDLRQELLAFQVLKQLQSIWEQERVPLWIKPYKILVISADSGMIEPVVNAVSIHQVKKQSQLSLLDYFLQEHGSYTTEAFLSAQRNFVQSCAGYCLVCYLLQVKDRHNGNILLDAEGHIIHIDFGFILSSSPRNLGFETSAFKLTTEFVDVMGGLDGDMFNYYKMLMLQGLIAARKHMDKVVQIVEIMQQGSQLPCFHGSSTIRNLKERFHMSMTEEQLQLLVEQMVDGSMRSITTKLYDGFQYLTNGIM
UniProt Q13131: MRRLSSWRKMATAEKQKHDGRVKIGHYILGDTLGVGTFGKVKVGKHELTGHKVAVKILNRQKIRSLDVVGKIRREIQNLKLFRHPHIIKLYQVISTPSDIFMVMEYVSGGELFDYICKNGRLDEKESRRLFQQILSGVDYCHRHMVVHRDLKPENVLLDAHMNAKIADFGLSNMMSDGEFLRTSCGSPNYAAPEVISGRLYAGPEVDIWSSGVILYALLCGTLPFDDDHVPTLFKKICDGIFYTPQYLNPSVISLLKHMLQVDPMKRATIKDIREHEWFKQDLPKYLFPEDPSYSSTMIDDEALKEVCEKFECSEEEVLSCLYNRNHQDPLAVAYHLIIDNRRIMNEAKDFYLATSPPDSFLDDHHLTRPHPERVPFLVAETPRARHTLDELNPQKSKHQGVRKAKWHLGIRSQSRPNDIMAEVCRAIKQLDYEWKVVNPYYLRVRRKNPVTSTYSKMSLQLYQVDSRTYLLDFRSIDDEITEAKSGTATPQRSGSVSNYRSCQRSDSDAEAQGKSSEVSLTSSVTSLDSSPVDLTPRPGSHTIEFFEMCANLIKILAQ
UniProt Q14289, whole entry, looked up: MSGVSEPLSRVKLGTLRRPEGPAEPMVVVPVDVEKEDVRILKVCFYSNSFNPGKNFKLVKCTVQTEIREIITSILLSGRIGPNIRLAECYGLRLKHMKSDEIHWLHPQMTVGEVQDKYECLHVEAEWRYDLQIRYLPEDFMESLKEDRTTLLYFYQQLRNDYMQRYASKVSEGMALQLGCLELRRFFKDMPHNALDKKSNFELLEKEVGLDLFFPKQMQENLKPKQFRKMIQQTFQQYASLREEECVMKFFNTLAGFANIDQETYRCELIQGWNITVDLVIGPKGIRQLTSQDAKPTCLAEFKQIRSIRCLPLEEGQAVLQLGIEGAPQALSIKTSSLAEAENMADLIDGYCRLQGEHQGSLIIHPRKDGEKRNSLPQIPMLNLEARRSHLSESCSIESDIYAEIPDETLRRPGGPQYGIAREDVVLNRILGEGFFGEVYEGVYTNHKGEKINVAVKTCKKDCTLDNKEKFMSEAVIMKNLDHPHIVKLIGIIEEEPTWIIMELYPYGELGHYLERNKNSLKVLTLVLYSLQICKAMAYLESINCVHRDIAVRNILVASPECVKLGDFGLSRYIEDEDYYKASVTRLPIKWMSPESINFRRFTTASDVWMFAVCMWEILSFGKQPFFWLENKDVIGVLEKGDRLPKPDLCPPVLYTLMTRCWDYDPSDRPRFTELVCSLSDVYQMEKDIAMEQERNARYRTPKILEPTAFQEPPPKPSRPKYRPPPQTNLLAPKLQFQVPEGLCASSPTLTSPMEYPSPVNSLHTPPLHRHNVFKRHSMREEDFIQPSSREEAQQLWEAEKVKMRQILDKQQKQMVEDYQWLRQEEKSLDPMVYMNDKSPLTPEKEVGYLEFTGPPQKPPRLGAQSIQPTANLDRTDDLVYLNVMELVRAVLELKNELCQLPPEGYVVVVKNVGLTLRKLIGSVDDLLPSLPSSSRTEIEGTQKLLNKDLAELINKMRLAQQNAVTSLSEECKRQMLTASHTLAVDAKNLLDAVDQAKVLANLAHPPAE
UniProt P07949, whole entry, looked up: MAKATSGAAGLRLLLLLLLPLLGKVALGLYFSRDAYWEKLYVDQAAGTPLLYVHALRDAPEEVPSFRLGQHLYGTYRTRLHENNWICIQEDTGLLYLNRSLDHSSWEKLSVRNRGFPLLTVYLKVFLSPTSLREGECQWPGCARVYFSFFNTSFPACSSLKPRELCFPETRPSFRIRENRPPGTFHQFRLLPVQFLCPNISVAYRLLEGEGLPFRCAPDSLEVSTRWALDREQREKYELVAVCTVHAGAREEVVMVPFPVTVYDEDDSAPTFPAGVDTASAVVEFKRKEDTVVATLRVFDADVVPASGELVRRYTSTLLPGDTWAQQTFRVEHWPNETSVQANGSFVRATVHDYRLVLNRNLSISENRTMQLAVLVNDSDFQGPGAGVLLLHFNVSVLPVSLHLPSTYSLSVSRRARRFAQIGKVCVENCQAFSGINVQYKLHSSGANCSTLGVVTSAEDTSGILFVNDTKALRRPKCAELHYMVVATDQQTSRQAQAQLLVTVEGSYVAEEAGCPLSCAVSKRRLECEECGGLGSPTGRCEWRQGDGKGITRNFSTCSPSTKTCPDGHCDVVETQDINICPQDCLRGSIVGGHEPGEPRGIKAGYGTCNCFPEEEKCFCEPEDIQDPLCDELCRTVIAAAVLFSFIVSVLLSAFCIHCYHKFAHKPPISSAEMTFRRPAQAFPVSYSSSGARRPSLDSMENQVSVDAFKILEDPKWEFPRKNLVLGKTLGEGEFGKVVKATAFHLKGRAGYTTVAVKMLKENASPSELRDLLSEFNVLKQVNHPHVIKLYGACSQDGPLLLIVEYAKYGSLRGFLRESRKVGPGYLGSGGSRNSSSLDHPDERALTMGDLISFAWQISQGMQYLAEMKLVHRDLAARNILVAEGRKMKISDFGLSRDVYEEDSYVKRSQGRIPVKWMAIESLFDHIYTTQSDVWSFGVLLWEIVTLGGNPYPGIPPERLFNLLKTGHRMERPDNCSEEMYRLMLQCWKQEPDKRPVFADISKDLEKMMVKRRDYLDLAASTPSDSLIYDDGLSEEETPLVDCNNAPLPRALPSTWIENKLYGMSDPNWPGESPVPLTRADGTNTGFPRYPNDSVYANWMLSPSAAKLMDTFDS
UniProt P07949, whole entry M918T, looked up: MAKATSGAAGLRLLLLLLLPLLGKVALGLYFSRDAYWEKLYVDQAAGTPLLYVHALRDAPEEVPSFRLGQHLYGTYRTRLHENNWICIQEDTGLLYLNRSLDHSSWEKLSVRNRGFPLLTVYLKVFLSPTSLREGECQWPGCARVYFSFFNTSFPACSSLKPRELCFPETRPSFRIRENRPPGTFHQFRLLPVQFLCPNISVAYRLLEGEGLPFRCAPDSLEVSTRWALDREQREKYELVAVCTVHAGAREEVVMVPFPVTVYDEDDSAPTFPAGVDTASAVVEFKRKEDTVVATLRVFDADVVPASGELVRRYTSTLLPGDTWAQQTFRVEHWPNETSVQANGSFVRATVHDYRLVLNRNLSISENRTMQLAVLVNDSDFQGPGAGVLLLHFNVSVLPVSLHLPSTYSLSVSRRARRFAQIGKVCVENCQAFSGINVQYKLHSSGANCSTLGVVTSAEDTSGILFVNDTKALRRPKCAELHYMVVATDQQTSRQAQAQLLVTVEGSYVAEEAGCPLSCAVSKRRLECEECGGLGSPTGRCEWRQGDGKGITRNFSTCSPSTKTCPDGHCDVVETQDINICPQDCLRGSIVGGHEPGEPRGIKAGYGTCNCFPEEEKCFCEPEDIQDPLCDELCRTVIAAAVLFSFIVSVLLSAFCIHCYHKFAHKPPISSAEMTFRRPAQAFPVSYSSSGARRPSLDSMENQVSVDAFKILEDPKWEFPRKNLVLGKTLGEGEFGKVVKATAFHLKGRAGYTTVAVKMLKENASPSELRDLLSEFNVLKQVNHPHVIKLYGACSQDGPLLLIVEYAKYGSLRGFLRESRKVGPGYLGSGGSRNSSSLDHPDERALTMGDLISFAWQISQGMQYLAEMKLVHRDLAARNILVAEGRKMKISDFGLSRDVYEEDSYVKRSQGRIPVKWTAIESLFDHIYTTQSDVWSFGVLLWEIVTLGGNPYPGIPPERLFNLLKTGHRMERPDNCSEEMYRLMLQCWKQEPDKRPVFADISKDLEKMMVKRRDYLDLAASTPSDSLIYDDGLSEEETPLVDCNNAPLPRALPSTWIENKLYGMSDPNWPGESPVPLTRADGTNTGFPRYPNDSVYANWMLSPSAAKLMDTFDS
UniProt Q01974, whole entry: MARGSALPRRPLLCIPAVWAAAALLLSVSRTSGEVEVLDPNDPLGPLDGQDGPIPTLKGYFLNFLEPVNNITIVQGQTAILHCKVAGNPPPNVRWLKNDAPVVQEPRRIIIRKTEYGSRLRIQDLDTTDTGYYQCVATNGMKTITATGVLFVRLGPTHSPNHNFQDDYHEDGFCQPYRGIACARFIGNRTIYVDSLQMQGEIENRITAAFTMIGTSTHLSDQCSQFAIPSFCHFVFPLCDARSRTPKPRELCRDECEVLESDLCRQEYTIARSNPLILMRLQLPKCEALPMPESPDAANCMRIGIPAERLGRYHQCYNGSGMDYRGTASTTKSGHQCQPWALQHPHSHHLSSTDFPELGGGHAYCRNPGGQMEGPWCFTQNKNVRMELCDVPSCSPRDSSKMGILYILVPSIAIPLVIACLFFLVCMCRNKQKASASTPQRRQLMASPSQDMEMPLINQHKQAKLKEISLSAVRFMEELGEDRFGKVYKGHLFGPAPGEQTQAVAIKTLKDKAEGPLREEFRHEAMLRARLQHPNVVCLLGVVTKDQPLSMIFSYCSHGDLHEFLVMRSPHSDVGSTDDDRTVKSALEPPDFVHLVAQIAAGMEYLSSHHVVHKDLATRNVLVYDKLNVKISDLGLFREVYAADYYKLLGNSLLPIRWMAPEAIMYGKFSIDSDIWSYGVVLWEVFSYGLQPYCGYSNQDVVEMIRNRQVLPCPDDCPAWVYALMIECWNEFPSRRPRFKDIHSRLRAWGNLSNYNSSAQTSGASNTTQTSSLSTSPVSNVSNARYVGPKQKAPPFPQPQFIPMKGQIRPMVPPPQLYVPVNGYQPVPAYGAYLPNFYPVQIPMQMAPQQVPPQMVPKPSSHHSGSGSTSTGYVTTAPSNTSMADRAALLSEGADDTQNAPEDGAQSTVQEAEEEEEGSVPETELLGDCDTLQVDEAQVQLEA
UniProt Q9Y6E0: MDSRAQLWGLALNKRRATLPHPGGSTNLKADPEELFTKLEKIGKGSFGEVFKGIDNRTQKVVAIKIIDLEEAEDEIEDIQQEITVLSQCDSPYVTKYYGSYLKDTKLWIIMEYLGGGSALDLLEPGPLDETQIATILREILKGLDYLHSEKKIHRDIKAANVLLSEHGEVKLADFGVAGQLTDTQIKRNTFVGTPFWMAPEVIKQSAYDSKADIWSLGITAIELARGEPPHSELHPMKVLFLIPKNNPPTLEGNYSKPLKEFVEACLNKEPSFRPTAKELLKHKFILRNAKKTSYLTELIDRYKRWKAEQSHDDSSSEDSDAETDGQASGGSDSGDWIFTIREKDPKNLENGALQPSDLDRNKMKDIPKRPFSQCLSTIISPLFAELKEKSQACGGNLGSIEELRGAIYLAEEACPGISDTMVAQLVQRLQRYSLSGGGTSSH

Measured: kinase-Nluc reporter destabilization hit call

CO[C@H]1C[C@@H]2CC[C@@H](C)[C@@](O)(O2)C(=O)C(=O)N2CCCC[C@H]2C(=O)O[C@H]([C@H](C)C[C@@H]2CC[C@@H](OC(=O)C(C)(CO)CO)[C@H](OC)C2)CC(=O)[C@H](C)/C=C(\C)[C@@H](O)[C@@H](OC)C(=O)[C@H](C)C[C@H](C)/C=C/C=C/C=C/1C [Temsirolimus] (2.5 µM)
inactive: PDPK1 = 0 | PIK4CA 0 | PIK4CB 0 | PLK1 = 0 | PRKAA1 = 0 | PRKCA 0 | PTK2 = 0 | PTK2B 0 | RAF1 = 0 | [1] 0 | RET 0 | [2] 0 | RIOK1 = 0 | RIPK1 = 0 | RIPK2 = 0 | ROR2 = 0 | RPS6KA1 = 0 | SPHK1 = 0 | SRC 0 | STK24 = 0

Nc1nc2c(nc(Br)n2[C@@H]2O[C@@H]3COP(=O)(O)O[C@H]3[C@H]2O)c(=O)[nH]1 [8-Bromo-cGMP (sodium)] (10 µM)
inactive: PDPK1 = 0 | PIK4CA 0 | PIK4CB 0 | PLK1 = 0 | PRKAA1 = 0 | PRKCA 0 | PTK2 = 0 | PTK2B 0 | RAF1 = 0 | [1] 0 | RET 0 | [2] 0 | RIOK1 = 0 | RIPK1 = 0 | RIPK2 = 0 | ROR2 = 0 | RPS6KA1 = 0 | SPHK1 = 0 | SRC 0 | STK24 = 0

COc1cc(-c2cc(OP(=O)(O)O)cc(-c3cc(OC)c(OC)c(OC)c3)c2)cc(OC)c1OC [Stafia-1] (10 µM)
inactive: PDPK1 = 0 | PIK4CA 0 | PIK4CB 0 | PLK1 = 0 | PRKAA1 = 0 | PRKCA 0 | PTK2 = 0 | PTK2B 0 | RAF1 = 0 | [1] 0 | RET 0 | [2] 0 | RIOK1 = 0 | RIPK1 = 0 | RIPK2 = 0 | ROR2 = 0 | RPS6KA1 = 0 | SPHK1 = 0 | SRC 0 | STK24 = 0

Cc1cccc(/C=N/Nc2cc(N3CCOCC3)n3nc(-c4ccncc4)cc3n2)c1 (10 µM)
inactive: PDPK1 = 0 | PIK4CA 0 | PIK4CB 0 | PLK1 = 0 | PRKAA1 = 0 | PRKCA 0 | PTK2 = 0 | PTK2B 0 | RAF1 = 0 | [1] 0 | RET 0 | [2] 0 | RIOK1 = 0 | RIPK1 = 0 | RIPK2 = 0 | ROR2 = 0 | RPS6KA1 = 0 | SPHK1 = 0 | SRC 0 | STK24 = 0

C=CC(=O)Nc1ccc(C(=O)Nc2[nH]nc3c2CN(C(=O)N[C@H](CN(C)C)c2ccccc2)C3(C)C)cc1 (10 µM)
inactive: PDPK1 = 0 | PIK4CA 0 | PIK4CB 0 | PLK1 = 0 | PRKAA1 = 0 | PRKCA 0 | PTK2 = 0 | PTK2B 0 | RAF1 = 0 | [1] 0 | RET 0 | [2] 0 | RIOK1 = 0 | RIPK1 = 0 | RIPK2 = 0 | ROR2 = 0 | RPS6KA1 = 0 | SPHK1 = 0 | SRC 0 | STK24 = 0

COc1cc2ncnc(Nc3ccc(O)c(Br)c3)c2cc1OC (10 µM)
inactive: PDPK1 = 0 | PIK4CA 0 | PIK4CB 0 | PLK1 = 0 | PRKAA1 = 0 | PRKCA 0 | PTK2 = 0 | PTK2B 0 | RAF1 = 0 | [1] 0 | RET 0 | [2] 0 | RIOK1 = 0 | RIPK1 = 0 | RIPK2 = 0 | ROR2 = 0 | RPS6KA1 = 0 | SPHK1 = 0 | SRC 0 | STK24 = 0

c1ccc(Cn2c(-c3ccc(OC[C@H](C4CCNCC4)n4c(-c5ccccc5)nc5ccccc54)cc3)nc3ccccc32)cc1 [Deltarasin] (2.5 µM)
inactive: PDPK1 = 0 | PIK4CA 0 | PIK4CB 0 | PLK1 = 0 | PRKAA1 = 0 | PRKCA 0 | PTK2 = 0 | PTK2B 0 | RAF1 = 0 | [1] 0 | RET 0 | [2] 0 | RIOK1 = 0 | RIPK1 = 0 | RIPK2 = 0 | ROR2 = 0 | RPS6KA1 = 0 | SPHK1 = 0 | SRC 0 | STK24 = 0

CCN(CC)CCOc1ccc(Nc2nc(-c3ccccc3NC(=O)CCN3CCN(C)CC3)nc3ccccc23)cc1 (2.5 µM)
inactive: PDPK1 = 0 | PIK4CA 0 | PIK4CB 0 | PLK1 = 0 | PRKAA1 = 0 | PRKCA 0 | PTK2 = 0 | PTK2B 0 | RAF1 = 0 | [1] 0 | RET 0 | [2] 0 | RIOK1 = 0 | RIPK1 = 0 | RIPK2 = 0 | ROR2 = 0 | RPS6KA1 = 0 | SPHK1 = 0 | SRC 0 | STK24 = 0

CCNC(=O)C#Cc1ccc2c(C(=Nc3ccc(CN(C)C)cc3)c3ccccc3)c(O)[nH]c2c1 (2.5 µM)
inactive: PDPK1 = 0 | PIK4CA 0 | PIK4CB 0 | PLK1 = 0 | PRKAA1 = 0 | PRKCA 0 | PTK2 = 0 | PTK2B 0 | RAF1 = 0 | [1] 0 | RET 0 | [2] 0 | RIOK1 = 0 | RIPK1 = 0 | RIPK2 = 0 | ROR2 = 0 | RPS6KA1 = 0 | SPHK1 = 0 | SRC 0 | STK24 = 0

NC[C@@](O)(c1ccc(Cl)cc1)c1ccc(-c2cn[nH]c2)cc1 (10 µM)
inactive: PDPK1 = 0 | PIK4CA 0 | PIK4CB 0 | PLK1 = 0 | PRKAA1 = 0 | PRKCA 0 | PTK2 = 0 | PTK2B 0 | RAF1 = 0 | [1] 0 | RET 0 | [2] 0 | RIOK1 = 0 | RIPK1 = 0 | RIPK2 = 0 | ROR2 = 0 | RPS6KA1 = 0 | SPHK1 = 0 | SRC 0 | STK24 = 0

C=CC(=O)Nc1cccc(Oc2nc(Nc3ccc(N4CCN(C)CC4)c(F)c3)nc3[nH]ccc23)c1 [Avitinib (maleate)] (2.5 µM)
inactive: PDPK1 = 0 | PIK4CA 0 | PIK4CB 0 | PLK1 = 0 | PRKAA1 = 0 | PRKCA 0 | PTK2 = 0 | PTK2B 0 | RAF1 = 0 | [1] 0 | RET 0 | [2] 0 | RIOK1 = 0 | RIPK1 = 0 | RIPK2 = 0 | ROR2 = 0 | RPS6KA1 = 0 | SPHK1 = 0 | SRC 0 | STK24 = 0

O=C1Nc2ccc(CN3C(=O)CSC3=O)cc2/C1=C/c1cc(CN2CCOCC2)c[nH]1 (10 µM)
inactive: PDPK1 = 0 | PIK4CA 0 | PIK4CB 0 | PLK1 = 0 | PRKAA1 = 0 | PRKCA 0 | PTK2 = 0 | PTK2B 0 | RAF1 = 0 | [1] 0 | RET 0 | [2] 0 | RIOK1 = 0 | RIPK1 = 0 | RIPK2 = 0 | ROR2 = 0 | RPS6KA1 = 0 | SPHK1 = 0 | SRC 0 | STK24 = 0

Cc1cc(-n2c(=O)ccc3c[nH]c4nccc-4c32)ccc1F (10 µM)
inactive: PDPK1 = 0 | PIK4CA 0 | PIK4CB 0 | PLK1 = 0 | PRKAA1 = 0 | PRKCA 0 | PTK2 = 0 | PTK2B 0 | RAF1 = 0 | [1] 0 | RET 0 | [2] 0 | RIOK1 = 0 | RIPK1 = 0 | RIPK2 = 0 | ROR2 = 0 | RPS6KA1 = 0 | SPHK1 = 0 | SRC 0 | STK24 = 0

CCCn1/c(=N/C(=O)c2cccc(C(N)=O)c2)[nH]c2ccccc21 [Takinib] (10 µM)
inactive: PDPK1 = 0 | PIK4CA 0 | PIK4CB 0 | PLK1 = 0 | PRKAA1 = 0 | PRKCA 0 | PTK2 = 0 | PTK2B 0 | RAF1 = 0 | [1] 0 | RET 0 | [2] 0 | RIOK1 = 0 | RIPK1 = 0 | RIPK2 = 0 | ROR2 = 0 | RPS6KA1 = 0 | SPHK1 = 0 | SRC 0 | STK24 = 0

Oc1c(F)cc(-c2cnccc2-c2ccc(N3CCOCC3)cc2)cc1F (10 µM)
inactive: PDPK1 = 0 | PIK4CA 0 | PIK4CB 0 | PLK1 = 0 | PRKAA1 = 0 | PRKCA 0 | PTK2 = 0 | PTK2B 0 | RAF1 = 0 | [1] 0 | RET 0 | [2] 0 | RIOK1 = 0 | RIPK1 = 0 | RIPK2 = 0 | ROR2 = 0 | RPS6KA1 = 0 | SPHK1 = 0 | SRC 0 | STK24 = 0

5 structures out of the list, ordered by number of heavy atoms, falling.
c1ccc(Cn2c(-c3ccc(OC[C@H](C4CCNCC4)n4c(-c5ccccc5)nc5ccccc54)cc3)nc3ccccc32)cc1 [Deltarasin] (2.5 µM)
inactive: PDPK1 = 0 | PIK4CA 0 | PIK4CB 0 | PLK1 = 0 | PRKAA1 = 0 | PRKCA 0 | PTK2 = 0 | PTK2B 0 | RAF1 = 0 | [1] 0 | RET 0 | [2] 0 | RIOK1 = 0 | RIPK1 = 0 | RIPK2 = 0 | ROR2 = 0 | RPS6KA1 = 0 | SPHK1 = 0 | SRC 0 | STK24 = 0

CCNC(=O)C#Cc1ccc2c(C(=Nc3ccc(CN(C)C)cc3)c3ccccc3)c(O)[nH]c2c1 (2.5 µM)
inactive: PDPK1 = 0 | PIK4CA 0 | PIK4CB 0 | PLK1 = 0 | PRKAA1 = 0 | PRKCA 0 | PTK2 = 0 | PTK2B 0 | RAF1 = 0 | [1] 0 | RET 0 | [2] 0 | RIOK1 = 0 | RIPK1 = 0 | RIPK2 = 0 | ROR2 = 0 | RPS6KA1 = 0 | SPHK1 = 0 | SRC 0 | STK24 = 0

O=C1Nc2ccc(CN3C(=O)CSC3=O)cc2/C1=C/c1cc(CN2CCOCC2)c[nH]1 (10 µM)
inactive: PDPK1 = 0 | PIK4CA 0 | PIK4CB 0 | PLK1 = 0 | PRKAA1 = 0 | PRKCA 0 | PTK2 = 0 | PTK2B 0 | RAF1 = 0 | [1] 0 | RET 0 | [2] 0 | RIOK1 = 0 | RIPK1 = 0 | RIPK2 = 0 | ROR2 = 0 | RPS6KA1 = 0 | SPHK1 = 0 | SRC 0 | STK24 = 0

Oc1c(F)cc(-c2cnccc2-c2ccc(N3CCOCC3)cc2)cc1F (10 µM)
inactive: PDPK1 = 0 | PIK4CA 0 | PIK4CB 0 | PLK1 = 0 | PRKAA1 = 0 | PRKCA 0 | PTK2 = 0 | PTK2B 0 | RAF1 = 0 | [1] 0 | RET 0 | [2] 0 | RIOK1 = 0 | RIPK1 = 0 | RIPK2 = 0 | ROR2 = 0 | RPS6KA1 = 0 | SPHK1 = 0 | SRC 0 | STK24 = 0

COc1cc2ncnc(Nc3ccc(O)c(Br)c3)c2cc1OC (10 µM)
inactive: PDPK1 = 0 | PIK4CA 0 | PIK4CB 0 | PLK1 = 0 | PRKAA1 = 0 | PRKCA 0 | PTK2 = 0 | PTK2B 0 | RAF1 = 0 | [1] 0 | RET 0 | [2] 0 | RIOK1 = 0 | RIPK1 = 0 | RIPK2 = 0 | ROR2 = 0 | RPS6KA1 = 0 | SPHK1 = 0 | SRC 0 | STK24 = 0

(further entries)

Cc1cc(O)c2c(c1)C(=O)c1cccc(O)c1C2=O [Chrysophanol] (2 µM)
inactive: PDPK1 = 0 | PIK4CA 0 | PIK4CB 0 | PLK1 = 0 | PRKAA1 = 0 | PRKCA 0 | PTK2 = 0 | PTK2B 0 | RAF1 = 0 | [1] 0 | RET 0 | [2] 0 | RIOK1 = 0 | RIPK1 = 0 | RIPK2 = 0 | ROR2 = 0 | RPS6KA1 = 0 | SPHK1 = 0 | SRC 0 | STK24 = 0

COc1cc(-c2cc(-c3ccc(N4CCNCC4)cc3)cnc2C)cc(OC)c1OC (10 µM)
inactive: PDPK1 = 0 | PIK4CA 0 | PIK4CB 0 | PLK1 = 0 | PRKAA1 = 0 | PRKCA 0 | PTK2 = 0 | PTK2B 0 | RAF1 = 0 | [1] 0 | RET 0 | [2] 0 | RIOK1 = 0 | RIPK1 = 0 | RIPK2 = 0 | ROR2 = 0 | RPS6KA1 = 0 | SPHK1 = 0 | SRC 0 | STK24 = 0

CCn1c(-c2nonc2N)nc2c(C#CC(C)(C)O)ncc(OC[C@H]3CCCNC3)c21 (10 µM)
inactive: PDPK1 = 0 | PIK4CA 0 | PIK4CB 0 | PLK1 = 0 | PRKAA1 = 0 | PRKCA 0 | PTK2 = 0 | PTK2B 0 | RAF1 = 0 | [1] 0 | RET 0 | [2] 0 | RIOK1 = 0 | RIPK1 = 0 | RIPK2 = 0 | ROR2 = 0 | RPS6KA1 = 0 | SPHK1 = 0 | SRC 0 | STK24 = 0
